Measurements from patent US20120289884A1, “Fused Ring Diarylamino Photosensitizers for Phototherapy” (Mallinckrodt LLC, priority 2011, published 2012).

Assay: ESR spectroscopy of free radical generation upon photoexcitation

C1=Cc2ccccc2Nc2ccccc21 [(FX8), 5H-Dibenz[b,f]azepine]
lifetime of the radical from photolysis (t1/2) (ESR without DMPO, benzene solution): 20 s

c1ccc2c(c1)Sc1ccccc1S2 [(FX21)a, thianthrene]
free radical generation detected by ESR (photoexcitation with UV-A and/or UV-B light): no radicals could be detected
